For assay [1], the target named is T1, TIGIT on the TIGIT-overexpressing Jurkat cell line (Jurkat-TIGIT) (Homo sapiens (Human)) (UniProt Q495A1).
T1 sequence: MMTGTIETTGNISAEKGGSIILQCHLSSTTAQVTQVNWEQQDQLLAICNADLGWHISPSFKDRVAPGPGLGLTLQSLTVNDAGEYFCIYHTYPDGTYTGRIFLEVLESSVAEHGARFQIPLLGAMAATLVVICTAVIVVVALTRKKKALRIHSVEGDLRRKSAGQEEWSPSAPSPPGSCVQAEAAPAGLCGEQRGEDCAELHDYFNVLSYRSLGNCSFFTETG
The assay can be described thus: flow cytometry (MFI) on Jurkat-TIGIT cells. Background: Flow cytometry measures light scatter and fluorescence of single cells or particles in a stream.

In assay [2] the target is T2, human TIGIT on transfected HEK293 cells (human) (UniProt Q495A1).
T2 sequence: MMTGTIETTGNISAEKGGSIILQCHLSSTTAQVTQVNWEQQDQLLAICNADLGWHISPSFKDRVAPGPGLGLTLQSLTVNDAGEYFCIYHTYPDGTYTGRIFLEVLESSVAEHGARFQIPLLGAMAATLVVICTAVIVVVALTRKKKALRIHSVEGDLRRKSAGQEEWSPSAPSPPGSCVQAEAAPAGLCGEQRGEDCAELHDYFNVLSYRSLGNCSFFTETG
The assay can be described thus: flow cytometry on HEK293 cells transfected with human TIGIT (GFP-positive cells), antibody 1 ug/5x10^5 cells, PE goat anti-human Fab'2.

Assay [3] has as its target human TIGIT-His antigen (human) (UniProt Q495A1). Kind of assay: Octet (BLI), human TIGIT-HIS on penta-His sensor. Background: Biolayer interferometry detects binding as a change in optical thickness at a sensor tip.
In assay [4] the target is T2, human TIGIT on transfected HEK293 cells (human). Kind of assay: flow cytometry on HEK293 cells transfected with human TIGIT.

These are yes or no findings as the source states them, for the method shown. Some entries that bind do so weakly or less than the wild type.

B1: 1F10 (IgG-type anti-TIGIT antibody) (antibody, V domains shown)
VH: EVQLVESGGGLVKPGGSLRISCAASGFTFSNYNMIWVRQAPGKGLEWVSSISSSASYIYYADSVKGRFTISRDNAKNSLYLQMNSLRAEDTAVYYCARDEGSRDSWNNGPYYYSGMDVWGQGTTVTVSS
VL: AIQMTQSPSSLSASVGDRVTITCRASQSISRYLNWYQHKPGKAPKLLIYGASSLQSGVPSRFRGSGSGTDFTLTISSLQPEDFATYYCQQSYTTPGAFTFGGGTKVEIKR
For B1, the binding entry in assay [1] and in assay [2] was “binds” throughout.

B2: 1E8 (IgG-type anti-TIGIT antibody) (antibody, V domains shown)
VH: QVQLVQSGTEVKKPGASVKVSCKASGYTFSSYAITWVRQAPGQGLEWMGWISAYNGNTNYAQKLQGRVTMTTDTSTSTAYMELRSLRSDDTAVYYCARVDFWSGYNYFDYWGQGTLVTVSS
VL: DIQMTQSPSSLSASVGDRVTITCRASQGISNYLAWYQQKPGKVPKVLIYAASTLQSGVPSRFSGSGSGTDFTLTISSLQPEDVATYYCQKSNSAPLTFGGGTKVEIKR
B2: the binding result in assay [3], in assay [1] and in assay [4] was “binds” each time.
